Laboratory results published in paper PMC12435343.
Results are given in words; binding and its absence hold for the method and conditions named. Some binding calls cover weakened binding; strength is not graded here.

Legend:
[1] = biological target: Nerve injury-induced protein 1 (NINJ1), human, endogenous in HK-2 cells (human (endogenous in HK-2)) (UniProt Q92982); assay: native gel or EMSA; Native-PAGE of lysates of HK-2 cells and kidney tissues (150 mM NaCl, 1% digitonin, 50 mM Tris pH 7.5, protease inhibitor), blotted for endogenous NINJ1; mice sham or IRI (also AAV9-shNinj1, TDE); HK-2 normoxia or H/R (also siNINJ1, 5 mM glycine, ELK1 S383A, TDE)
[2] = biological target: Nerve injury-induced protein 1 (NINJ1), mouse, endogenous in renal tissue (mouse (endogenous in kidney tissue of C57BL/6J mice)) (UniProt O70131); assay: as above

Binder	binding [1]	binding [2]
Nerve injury-induced protein 1 (NINJ1), human, endogenous in HK-2 cells (protein, UniProt Q92982 1-152) MDSGTEEYELNGGLPPGTPGSPDASPARWGWRHGPINVNHYASKKSAAESMLDIALLMANASQLKAVVEQGPSFAFYVPLVVLISISLVLQIGVGVLLIFLVKYDLNNPAKHAKLDFLNNLATGLVFIIVVVNIFITAFGVQKPLMDMAPQQ	binds	
Nerve injury-induced protein 1 (NINJ1), mouse, endogenous in renal tissue (protein, UniProt O70131 1-152) MESGTEEYELNGDLRPGSPGSPDALPPRWGLRNRPINVNHYANKKSAAESMLDIALLMANASQLKAVVEQGNDFAFFVPLVVLISISLVLQIGVGVLLIFLVKYDLNNPAKHAKLDFLNNLATGLVFIIVVVNIFITAFGVQKPVMDVAPRQ		binds
